Experimental data reported in paper PMC6566557.

Molecular target: FLAG-tagged Krüppel-homologue 1 (brown planthopper, full-length CDS) (brown planthopper, Nilaparvata lugens)
Experiment: co-IP; 293T cells co-transfected with FLAG- and HA-tagged constructs; lysate precipitated with anti-FLAG antibody beads; Western blot

## HA-tagged E93 (brown planthopper, full-length CDS) (from UniProt A0A2H4G0R5)
  binding: binds

No constants are given. Whether binding was seen depends on the method and setting. In cells and extracts the contact can be indirect. Binding can be weak; no strength is given.
